Source: PubChem BioAssay AID504764 (Drosophila RNAi Screening Center, 2011)

Test: 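Genes whose knock-down alters Notch-dependent transcription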 (primary screen)
System: Drosophila Kc167 cells
Reagent: long dsRNA against Drosophila genes
Time to read-out: about 5 days (4 days dsRNA, then 24 h after transfection)
Challenge: transfection of constitutively active membrane-tethered Notch lacking the extracellular domain, read 24 h later
Detection: 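Light from a Notch-responsive E(spl)m3 luciferase reporter under active Notch, with control-promoter and no-Notch reporter wells to normalise; raw counts from paired wells a and b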
Direction: induced reporter light, run 1, well a and induced reporter light, run 1, well b: higher = more light from the Notch target reporter with active Notch; control promoter light, run 1, well a and control promoter light, run 1, well b: higher = more light from the viral control promoter (cell number, transfection, viability); uninduced reporter light, run 1, well a: higher = more light from the Notch target reporter without active Notch
Call rule: 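Hit if the duplicate-averaged log2 ratio of induced to control-promoter light gives a plate-wise z beyond ±2, or induced to uninduced beyond ±1.8; weak-control or discordant-duplicate wells dropped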
Meaning of the calls: active = modifier hit (raised or lowered Notch signal); inactive = not a hit
In all, the deposit lists about 22,000 reagents; this is a random part of those that have a named target and a result. In the full data, 403 (1.9%) were called active. 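Unnormalised raw counts per well; ratio z-scores behind the hit calls and whether each hit raises or lowers signal are not deposited.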 The numbers tell different reagents against one gene apart. No sequences are given here. The record does not give: the amount of reagent.

target gene,dsRNA no.,"induced reporter light, run 1, well a","induced reporter light, run 1, well b","control promoter light, run 1, well a","control promoter light, run 1, well b","uninduced reporter light, run 1, well a",Call
htt (GeneID 43392),1,98525,1.14e5,1.53e5,1.39e5,9955,inactive
PIP82 (GeneID 31791),1,1.62e5,1.72e5,2.79e5,3.41e5,11605,inactive
RfC4 (GeneID 38492),1,1.24e5,1.01e5,87295,25480,10285,inactive
CG6465 (GeneID 41274),1,1.48e5,1.23e5,1.04e5,95040,10635,inactive
CG12448 (GeneID 34942),1,1.29e5,1.33e5,1.47e5,1.66e5,11665,inactive
SNRPG (GeneID 32636),1,54490,58330,58210,59395,6505,inactive
nsl1 (GeneID 41911),1,1.77e5,2.77e5,3.39e5,4.25e5,16450,inactive
su(w[a]) (GeneID 31054),1,1.18e5,1.48e5,1.07e5,1.07e5,10815,active
CG13511 (GeneID 37597),1,2.42e5,2.00e5,2.03e5,1.85e5,15420,inactive
thetaTry (GeneID 36218),1,1.53e5,1.60e5,1.91e5,1.63e5,12842,inactive
HDAC6 (GeneID 32461),1,2.13e5,1.99e5,2.88e5,2.63e5,13700,inactive
CG2540 (GeneID 32216),1,1.53e5,1.69e5,2.22e5,1.79e5,14155,inactive
Cyp311a1 (GeneID 32170),1,1.54e5,1.45e5,2.39e5,1.90e5,9325,inactive
Cyp49a1 (GeneID 36105),1,2.23e5,1.97e5,3.48e5,3.09e5,24755,inactive
Cyp49a1 (GeneID 36105),2,2.42e5,2.33e5,2.96e5,2.58e5,18950,inactive
GXIVsPLA2 (GeneID 39734),1,1.12e5,1.47e5,71075,80710,9130,inactive
CG14785 (GeneID 31094),1,1.75e5,1.63e5,2.42e5,2.07e5,12388,inactive
CG13599 (GeneID 42829),1,1.61e5,1.86e5,2.27e5,1.92e5,13665,inactive
CG6254 (GeneID 41244),1,1.25e5,1.38e5,87085,1.08e5,10760,inactive
CG32548 (GeneID 32826),1,73685,58120,89610,70755,9510,inactive
CG32548 (GeneID 32826),2,99800,1.04e5,65825,55980,11295,inactive
CG7044 (GeneID 42497),1,2.16e5,1.95e5,2.48e5,2.60e5,17800,inactive
CG12540 (GeneID 32393),1,1.30e5,1.13e5,93470,99605,16000,inactive
ProRS-m (GeneID 38331),1,1.10e5,1.51e5,1.92e5,1.74e5,8775,inactive
Obp83b (GeneID 40738),1,90585,95555,79950,64605,5410,inactive
CG17300 (GeneID 39489),1,2.01e5,1.73e5,1.91e5,1.51e5,10885,inactive
tey (GeneID 40146),1,42415,38245,48790,46220,2095,inactive
CG12307 (GeneID 34584),1,1.67e5,1.69e5,93950,1.31e5,18075,inactive
dpr6 (GeneID 50296),1,1.57e5,1.71e5,84595,84450,11420,inactive
dpr6 (GeneID 50296),2,1.79e5,1.58e5,2.05e5,1.50e5,7992,inactive
dpr6 (GeneID 50296),3,1.58e5,1.62e5,2.49e5,3.11e5,16170,inactive
CG33648 (GeneID 3772188),1,76790,79555,77580,73940,8110,inactive
GNBP2 (GeneID 40033),1,1.56e5,1.13e5,95580,89530,9530,inactive
CG34382 (GeneID 5740788),1,1.41e5,1.57e5,2.12e5,2.24e5,12340,inactive
CG34382 (GeneID 5740788),2,2.34e5,1.77e5,3.38e5,2.37e5,9515,inactive
CG34382 (GeneID 5740788),3,1.80e5,1.10e5,1.87e5,1.86e5,9700,inactive

Reformatted: results already given.
{"target gene":"thetaTry (GeneID 36218)","dsRNA no.":1,"induced reporter light, run 1, well a":1.53e5,"induced reporter light, run 1, well b":1.60e5,"control promoter light, run 1, well a":1.91e5,"control promoter light, run 1, well b":1.63e5,"uninduced reporter light, run 1, well a":12842,"Call":"inactive"}
{"target gene":"HDAC6 (GeneID 32461)","dsRNA no.":1,"induced reporter light, run 1, well a":2.13e5,"induced reporter light, run 1, well b":1.99e5,"control promoter light, run 1, well a":2.88e5,"control promoter light, run 1, well b":2.63e5,"uninduced reporter light, run 1, well a":13700,"Call":"inactive"}
{"target gene":"CG2540 (GeneID 32216)","dsRNA no.":1,"induced reporter light, run 1, well a":1.53e5,"induced reporter light, run 1, well b":1.69e5,"control promoter light, run 1, well a":2.22e5,"control promoter light, run 1, well b":1.79e5,"uninduced reporter light, run 1, well a":14155,"Call":"inactive"}
{"target gene":"Cyp311a1 (GeneID 32170)","dsRNA no.":1,"induced reporter light, run 1, well a":1.54e5,"induced reporter light, run 1, well b":1.45e5,"control promoter light, run 1, well a":2.39e5,"control promoter light, run 1, well b":1.90e5,"uninduced reporter light, run 1, well a":9325,"Call":"inactive"}
{"target gene":"Cyp49a1 (GeneID 36105)","dsRNA no.":1,"induced reporter light, run 1, well a":2.23e5,"induced reporter light, run 1, well b":1.97e5,"control promoter light, run 1, well a":3.48e5,"control promoter light, run 1, well b":3.09e5,"uninduced reporter light, run 1, well a":24755,"Call":"inactive"}
